According to paper PMC6481990:
Read-outs that look alike come from different tables or passages of the source. These are yes or no findings as the source states them, for the method shown. Binding seen in cells or lysates may run through a third protein. Some results given as binding are weak or reduced against the parent protein; the word gives no strength.

Protein sequences, listed by entry. Tags and fused reporters are not part of them.
UniProt P63141: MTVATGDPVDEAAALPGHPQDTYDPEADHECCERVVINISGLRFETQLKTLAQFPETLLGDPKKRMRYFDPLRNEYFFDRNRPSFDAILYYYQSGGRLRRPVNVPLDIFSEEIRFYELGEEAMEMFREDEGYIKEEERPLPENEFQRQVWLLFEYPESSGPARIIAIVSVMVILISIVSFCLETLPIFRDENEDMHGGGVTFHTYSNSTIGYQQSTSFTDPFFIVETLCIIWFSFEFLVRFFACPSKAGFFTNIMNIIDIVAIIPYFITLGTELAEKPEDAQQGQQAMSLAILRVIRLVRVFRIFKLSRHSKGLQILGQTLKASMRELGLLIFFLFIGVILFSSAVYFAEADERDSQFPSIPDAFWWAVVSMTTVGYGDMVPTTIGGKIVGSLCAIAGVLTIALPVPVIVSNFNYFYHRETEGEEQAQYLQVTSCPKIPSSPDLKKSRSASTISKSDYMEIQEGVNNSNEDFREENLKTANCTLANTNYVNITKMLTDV
UniProt Q99246: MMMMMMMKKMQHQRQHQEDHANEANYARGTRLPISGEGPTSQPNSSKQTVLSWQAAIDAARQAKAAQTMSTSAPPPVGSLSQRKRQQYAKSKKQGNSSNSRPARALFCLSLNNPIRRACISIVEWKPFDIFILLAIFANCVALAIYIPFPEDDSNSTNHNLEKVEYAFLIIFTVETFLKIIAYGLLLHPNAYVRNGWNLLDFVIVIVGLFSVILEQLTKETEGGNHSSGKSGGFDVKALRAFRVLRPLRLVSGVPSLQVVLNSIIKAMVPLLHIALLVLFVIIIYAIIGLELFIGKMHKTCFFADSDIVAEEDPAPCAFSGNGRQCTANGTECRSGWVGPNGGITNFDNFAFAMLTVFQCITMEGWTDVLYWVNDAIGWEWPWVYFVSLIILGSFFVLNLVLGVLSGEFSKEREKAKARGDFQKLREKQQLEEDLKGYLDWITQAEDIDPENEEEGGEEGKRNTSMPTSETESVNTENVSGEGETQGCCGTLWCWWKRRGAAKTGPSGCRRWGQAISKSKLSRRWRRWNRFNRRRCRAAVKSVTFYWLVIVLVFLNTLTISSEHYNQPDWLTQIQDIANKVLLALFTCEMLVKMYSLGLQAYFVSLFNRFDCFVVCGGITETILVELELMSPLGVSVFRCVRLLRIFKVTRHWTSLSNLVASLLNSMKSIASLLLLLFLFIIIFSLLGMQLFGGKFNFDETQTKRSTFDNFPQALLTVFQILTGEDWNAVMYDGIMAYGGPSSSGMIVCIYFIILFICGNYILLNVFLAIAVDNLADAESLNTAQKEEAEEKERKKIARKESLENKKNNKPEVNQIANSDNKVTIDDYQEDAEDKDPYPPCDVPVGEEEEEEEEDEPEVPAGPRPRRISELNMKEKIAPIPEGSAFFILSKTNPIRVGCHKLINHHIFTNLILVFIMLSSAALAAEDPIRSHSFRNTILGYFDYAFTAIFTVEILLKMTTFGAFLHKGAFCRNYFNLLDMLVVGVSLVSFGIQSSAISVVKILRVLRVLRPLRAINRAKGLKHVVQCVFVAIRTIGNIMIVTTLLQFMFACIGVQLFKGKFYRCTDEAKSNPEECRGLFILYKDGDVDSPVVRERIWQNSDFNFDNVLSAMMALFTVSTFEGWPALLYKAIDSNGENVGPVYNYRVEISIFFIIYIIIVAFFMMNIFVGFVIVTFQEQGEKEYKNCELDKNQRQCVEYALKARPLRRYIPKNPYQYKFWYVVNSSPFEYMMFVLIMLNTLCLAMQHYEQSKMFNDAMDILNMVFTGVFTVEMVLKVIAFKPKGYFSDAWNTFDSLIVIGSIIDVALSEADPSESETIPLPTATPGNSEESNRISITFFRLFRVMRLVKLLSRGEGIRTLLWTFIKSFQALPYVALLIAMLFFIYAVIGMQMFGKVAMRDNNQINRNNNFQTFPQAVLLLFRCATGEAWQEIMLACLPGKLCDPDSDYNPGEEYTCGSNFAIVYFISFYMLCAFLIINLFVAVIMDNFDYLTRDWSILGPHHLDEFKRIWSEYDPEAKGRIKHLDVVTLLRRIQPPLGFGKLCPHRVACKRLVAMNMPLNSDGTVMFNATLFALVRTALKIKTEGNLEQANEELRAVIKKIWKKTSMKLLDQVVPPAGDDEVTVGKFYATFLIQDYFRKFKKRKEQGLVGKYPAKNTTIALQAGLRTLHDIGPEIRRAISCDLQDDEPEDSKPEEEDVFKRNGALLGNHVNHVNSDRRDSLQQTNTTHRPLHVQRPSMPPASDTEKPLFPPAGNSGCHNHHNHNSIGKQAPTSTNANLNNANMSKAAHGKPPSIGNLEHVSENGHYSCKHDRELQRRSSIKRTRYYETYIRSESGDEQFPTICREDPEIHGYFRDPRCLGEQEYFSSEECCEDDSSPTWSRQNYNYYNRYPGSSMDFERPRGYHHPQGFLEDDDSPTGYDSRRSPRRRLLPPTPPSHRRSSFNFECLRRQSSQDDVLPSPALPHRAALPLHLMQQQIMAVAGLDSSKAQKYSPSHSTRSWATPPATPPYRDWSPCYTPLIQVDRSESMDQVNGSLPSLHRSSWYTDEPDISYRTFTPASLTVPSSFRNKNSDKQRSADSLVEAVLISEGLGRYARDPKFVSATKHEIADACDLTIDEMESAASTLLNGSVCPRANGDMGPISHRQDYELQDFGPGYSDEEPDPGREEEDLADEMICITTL
UniProt O88427: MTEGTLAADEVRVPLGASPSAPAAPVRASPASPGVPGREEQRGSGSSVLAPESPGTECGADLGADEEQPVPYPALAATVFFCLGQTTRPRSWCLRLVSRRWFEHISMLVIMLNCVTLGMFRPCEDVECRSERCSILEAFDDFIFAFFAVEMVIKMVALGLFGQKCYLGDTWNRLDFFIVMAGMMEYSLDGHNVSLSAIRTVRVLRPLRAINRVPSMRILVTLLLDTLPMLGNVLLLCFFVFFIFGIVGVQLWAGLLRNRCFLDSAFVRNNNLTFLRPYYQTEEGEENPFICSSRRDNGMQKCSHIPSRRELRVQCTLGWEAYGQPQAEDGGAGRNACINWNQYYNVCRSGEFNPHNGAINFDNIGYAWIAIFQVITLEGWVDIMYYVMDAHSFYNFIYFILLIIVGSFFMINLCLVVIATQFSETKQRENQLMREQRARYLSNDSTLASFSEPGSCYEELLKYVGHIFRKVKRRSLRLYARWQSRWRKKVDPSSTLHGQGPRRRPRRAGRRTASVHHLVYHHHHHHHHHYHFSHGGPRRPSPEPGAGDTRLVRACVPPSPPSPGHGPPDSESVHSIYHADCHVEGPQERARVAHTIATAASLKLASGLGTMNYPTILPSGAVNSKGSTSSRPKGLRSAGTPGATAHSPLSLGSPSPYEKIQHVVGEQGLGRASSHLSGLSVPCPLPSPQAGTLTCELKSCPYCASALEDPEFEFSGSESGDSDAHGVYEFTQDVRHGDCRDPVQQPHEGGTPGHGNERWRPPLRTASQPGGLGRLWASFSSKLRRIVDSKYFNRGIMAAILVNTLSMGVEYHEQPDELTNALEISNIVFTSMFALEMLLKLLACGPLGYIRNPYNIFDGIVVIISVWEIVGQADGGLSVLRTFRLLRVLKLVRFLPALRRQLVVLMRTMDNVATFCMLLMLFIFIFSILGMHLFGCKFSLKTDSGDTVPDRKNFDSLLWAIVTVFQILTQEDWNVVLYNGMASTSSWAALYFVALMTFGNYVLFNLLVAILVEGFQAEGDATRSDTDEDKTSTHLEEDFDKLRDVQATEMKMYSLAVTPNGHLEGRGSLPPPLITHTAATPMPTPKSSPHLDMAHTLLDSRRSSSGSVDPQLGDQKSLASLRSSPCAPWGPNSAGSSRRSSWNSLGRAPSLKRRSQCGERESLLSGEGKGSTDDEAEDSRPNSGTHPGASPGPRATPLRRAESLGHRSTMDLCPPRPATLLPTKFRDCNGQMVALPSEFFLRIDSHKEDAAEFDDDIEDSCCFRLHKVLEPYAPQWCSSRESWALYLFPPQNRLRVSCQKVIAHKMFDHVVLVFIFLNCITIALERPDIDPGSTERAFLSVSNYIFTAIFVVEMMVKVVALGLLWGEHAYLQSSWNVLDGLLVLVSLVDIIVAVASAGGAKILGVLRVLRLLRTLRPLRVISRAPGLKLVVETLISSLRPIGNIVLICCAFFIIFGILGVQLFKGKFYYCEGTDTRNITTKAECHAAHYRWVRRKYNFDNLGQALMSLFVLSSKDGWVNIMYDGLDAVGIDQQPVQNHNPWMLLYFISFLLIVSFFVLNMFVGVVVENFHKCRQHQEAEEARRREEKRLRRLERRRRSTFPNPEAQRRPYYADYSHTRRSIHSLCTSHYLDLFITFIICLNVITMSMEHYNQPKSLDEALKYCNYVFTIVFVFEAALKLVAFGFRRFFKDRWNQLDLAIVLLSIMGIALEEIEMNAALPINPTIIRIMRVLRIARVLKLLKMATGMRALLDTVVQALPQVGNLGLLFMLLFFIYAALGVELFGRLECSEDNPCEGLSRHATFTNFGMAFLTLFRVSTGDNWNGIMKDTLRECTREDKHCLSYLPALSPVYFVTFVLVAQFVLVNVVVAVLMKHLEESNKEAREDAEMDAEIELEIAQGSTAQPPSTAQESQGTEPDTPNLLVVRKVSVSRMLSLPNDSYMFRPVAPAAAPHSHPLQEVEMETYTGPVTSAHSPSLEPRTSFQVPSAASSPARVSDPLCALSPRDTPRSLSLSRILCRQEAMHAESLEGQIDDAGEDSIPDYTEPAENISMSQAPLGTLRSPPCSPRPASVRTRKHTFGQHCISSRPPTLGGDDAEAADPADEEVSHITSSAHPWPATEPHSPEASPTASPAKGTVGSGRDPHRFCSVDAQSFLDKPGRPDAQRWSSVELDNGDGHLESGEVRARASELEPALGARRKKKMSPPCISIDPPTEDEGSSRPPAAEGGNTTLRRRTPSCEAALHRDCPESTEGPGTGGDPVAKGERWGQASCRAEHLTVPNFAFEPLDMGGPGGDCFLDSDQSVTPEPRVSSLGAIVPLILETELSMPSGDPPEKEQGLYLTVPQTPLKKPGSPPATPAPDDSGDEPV

T1: Kv4.2 potassium channel subunit (mouse (endogenous in striatum)) (UniProt Q9Z0V2)
T1 sequence: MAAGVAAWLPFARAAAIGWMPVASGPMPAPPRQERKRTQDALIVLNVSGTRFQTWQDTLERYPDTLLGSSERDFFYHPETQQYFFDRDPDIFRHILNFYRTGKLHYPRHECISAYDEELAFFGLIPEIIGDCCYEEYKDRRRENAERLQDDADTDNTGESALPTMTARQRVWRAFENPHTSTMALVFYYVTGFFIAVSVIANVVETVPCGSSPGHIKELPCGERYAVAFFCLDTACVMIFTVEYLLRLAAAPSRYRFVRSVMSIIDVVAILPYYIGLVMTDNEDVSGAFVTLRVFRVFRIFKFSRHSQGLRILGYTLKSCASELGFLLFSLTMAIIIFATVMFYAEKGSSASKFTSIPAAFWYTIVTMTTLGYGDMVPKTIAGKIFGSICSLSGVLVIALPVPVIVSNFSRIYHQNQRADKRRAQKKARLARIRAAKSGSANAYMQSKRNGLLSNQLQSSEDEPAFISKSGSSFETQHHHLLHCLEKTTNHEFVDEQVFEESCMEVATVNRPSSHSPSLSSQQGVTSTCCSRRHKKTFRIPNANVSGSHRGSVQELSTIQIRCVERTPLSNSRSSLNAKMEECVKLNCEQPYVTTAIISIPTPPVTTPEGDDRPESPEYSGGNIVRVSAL

B1: KChIP1 (protein, UniProt Q9JJ57 1-227)
chain: MGAVMGTFSSLQTKQRRPSKDIAWWYYQYQRDKIEDELEMTMVCHRPEGLEQLEAQTNFTKRELQVLYRGFKNECPSGVVNEETFKQIYAQFFPHGDASTYAHYLFNAFDTTQTGSVKFEDFVTALSILLRGTVHEKLRWTFNLYDINKDGYINKEEMMDIVKAIYDMMGKYTYPVLKEDTPRQHVDVFFQKMDKNKDGIVTLDEFLESCQEDDNIMRSLQLFQNVM
B2: KChIP2 (protein, UniProt Q9JJ69 1-270)
chain: MRGQGRKESLSDSRDLDGSYDQLTGHPPGPSKKALKQRFLKLLPCCGPQALPSVSETLAAPASLRPHRPRPLDPDSVEDEFELSTVCHRPEGLEQLQEQTKFTRRELQVLYRGFKNECPSGIVNEENFKQIYSQFFPQGDSSNYATFLFNAFDTNHDGSVSFEDFVAGLSVILRGTIDDRLNWAFNLYDLNKDGCITKEEMLDIMKSIYDMMGKYTYPALREEAPREHVESFFQKMDRNKDGVVTIEEFIESCQQDENIMRSMQLFDNVI

What was measured:
[1] = molecular target: T1, Kv4.2 potassium channel subunit (mouse (endogenous in striatum)); test: co-IP; goat anti-Kv4.2 antibody (C20), 5 ug, with 200 ug membrane protein of mouse dorsal striatum lysate (wild-type or Q175 het, 6-8 months) overnight at 4 C, protein A/G magnetic beads, Western blot; in some experiments slices were incubated before with 50 ng/ml BDNF for 20 min, or 200 nM ROCK inhibitor SR3850 then BDNF
[2] = molecular target: T1, Kv4.2 potassium channel subunit (mouse (endogenous in striatum)); test: as above; remark: listed apart in the source
[3] = molecular target: Kv1.2 potassium channel subunit (mouse (endogenous in striatum)) (UniProt P63141); test: co-IP; rabbit anti-Kv1.2 antibody (ThermoFisher PA5-23006), 5 ug, with 200 ug membrane protein of mouse dorsal striatum lysate overnight at 4 C, protein A/G magnetic beads, Western blot for KChIP2

Molecule	binding [1]	binding [2]	binding [3]
Cav1.3 Ca2+ channel (from UniProt Q99246 1-2179)	no binding	–	–
Cav3.2 Ca2+ channel subunit (from UniProt O88427 1-2365)	binds	–	–
B1	–	binds	–
B2	–	binds	no binding
